Where “and” joins values, the source holds several entries; their conditions need not be identical. Identical values can stand only once. Inconclusive results, whose numbers are uncertain, are shown with a selection of clear calls. For some assays here: Potencies of inconclusive entries are doubtful fits and often do not repeat. The source holds several records for some structures; these can differ, active in one and inactive in another. Calls of active or inactive are those of the source. The calls were made as follows: active = hit-call score of the fitted dose curve at least 0.9, where 1 is the maximum; inconclusive = response in the unintended direction; inactive = score below 0.9.
Legend:
[1] = molecular target: human Acid Phosphatase 1 (ACP1), ACP1 (gene 52) (UniProt P24666); test: NVS_ENZ_hACP1: NovaScreen (NVS) Enzymatic Assay for human Acid Phosphatase 1 (ACP1) (AID 2283136)
In short: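 Recombinant enzyme expressed in Sf9 cells, tested cell-free; activity read by fluorescence with electrophoretic mobility shift separation of substrate and product, 1.5 h after dosing. Primary screen in duplicate at 25 uM, actives then run in concentration series; loss of signal versus DMSO.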

Sequences of proteins named here, by UniProt entry; tags and fusion partners are left off. A change or cut given only in a name is not applied to a line headed by its entry.
UniProt P24666: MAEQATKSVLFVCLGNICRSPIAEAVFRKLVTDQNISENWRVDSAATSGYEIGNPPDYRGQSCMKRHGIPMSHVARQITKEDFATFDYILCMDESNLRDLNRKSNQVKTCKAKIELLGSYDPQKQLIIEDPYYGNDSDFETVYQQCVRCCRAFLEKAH
UniProt Q14790: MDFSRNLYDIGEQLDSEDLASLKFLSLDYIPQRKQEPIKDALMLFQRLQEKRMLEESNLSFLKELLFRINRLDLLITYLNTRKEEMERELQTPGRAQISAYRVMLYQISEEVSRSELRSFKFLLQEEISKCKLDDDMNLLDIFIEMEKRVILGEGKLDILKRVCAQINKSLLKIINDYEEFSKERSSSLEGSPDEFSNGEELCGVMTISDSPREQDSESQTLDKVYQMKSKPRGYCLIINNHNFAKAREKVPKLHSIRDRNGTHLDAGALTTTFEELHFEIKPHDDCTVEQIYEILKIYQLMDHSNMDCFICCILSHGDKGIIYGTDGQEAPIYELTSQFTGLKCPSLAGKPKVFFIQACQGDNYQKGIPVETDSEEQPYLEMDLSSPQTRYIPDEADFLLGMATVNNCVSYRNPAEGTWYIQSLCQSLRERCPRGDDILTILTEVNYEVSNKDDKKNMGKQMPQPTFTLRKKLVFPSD
UniProt P09237: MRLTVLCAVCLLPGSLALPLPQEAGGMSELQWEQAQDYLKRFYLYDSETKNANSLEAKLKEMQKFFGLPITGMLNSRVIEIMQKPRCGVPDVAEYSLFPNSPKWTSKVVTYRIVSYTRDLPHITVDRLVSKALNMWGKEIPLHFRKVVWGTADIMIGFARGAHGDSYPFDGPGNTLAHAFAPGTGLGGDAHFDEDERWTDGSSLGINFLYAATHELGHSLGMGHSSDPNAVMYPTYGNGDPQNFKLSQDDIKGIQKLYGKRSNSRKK
UniProt P27815: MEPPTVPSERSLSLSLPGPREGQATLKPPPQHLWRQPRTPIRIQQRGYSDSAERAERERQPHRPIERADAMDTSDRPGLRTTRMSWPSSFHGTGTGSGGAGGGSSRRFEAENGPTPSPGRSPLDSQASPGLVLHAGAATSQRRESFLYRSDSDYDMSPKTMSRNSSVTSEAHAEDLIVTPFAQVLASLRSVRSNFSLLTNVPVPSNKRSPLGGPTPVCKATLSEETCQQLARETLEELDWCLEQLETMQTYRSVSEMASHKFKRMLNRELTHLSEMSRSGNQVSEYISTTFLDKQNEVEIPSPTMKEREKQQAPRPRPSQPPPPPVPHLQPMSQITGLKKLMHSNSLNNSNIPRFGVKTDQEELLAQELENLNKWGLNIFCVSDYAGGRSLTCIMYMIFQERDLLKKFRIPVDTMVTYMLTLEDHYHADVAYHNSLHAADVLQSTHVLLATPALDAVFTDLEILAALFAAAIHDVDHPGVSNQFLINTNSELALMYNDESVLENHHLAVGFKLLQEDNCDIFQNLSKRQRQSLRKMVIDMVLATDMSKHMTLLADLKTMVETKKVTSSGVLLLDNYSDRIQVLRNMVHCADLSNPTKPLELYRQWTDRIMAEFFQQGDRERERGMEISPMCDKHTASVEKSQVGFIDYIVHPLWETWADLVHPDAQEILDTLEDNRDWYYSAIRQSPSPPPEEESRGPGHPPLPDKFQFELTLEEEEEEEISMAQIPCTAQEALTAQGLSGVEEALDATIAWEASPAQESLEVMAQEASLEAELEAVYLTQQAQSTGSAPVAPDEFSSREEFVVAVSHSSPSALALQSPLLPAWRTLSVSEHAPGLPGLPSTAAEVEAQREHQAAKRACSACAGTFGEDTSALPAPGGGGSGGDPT
UniProt P00567: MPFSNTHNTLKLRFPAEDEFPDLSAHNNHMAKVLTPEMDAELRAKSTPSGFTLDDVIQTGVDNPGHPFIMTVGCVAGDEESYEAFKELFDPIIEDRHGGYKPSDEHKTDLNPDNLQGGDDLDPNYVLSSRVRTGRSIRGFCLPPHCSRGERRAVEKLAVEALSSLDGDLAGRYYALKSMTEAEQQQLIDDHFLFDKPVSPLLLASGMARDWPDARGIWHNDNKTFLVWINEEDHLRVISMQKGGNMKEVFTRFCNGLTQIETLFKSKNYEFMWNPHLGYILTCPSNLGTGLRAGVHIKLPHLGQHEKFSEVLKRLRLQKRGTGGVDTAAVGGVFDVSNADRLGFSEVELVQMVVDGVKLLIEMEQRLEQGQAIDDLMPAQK
UniProt P22734: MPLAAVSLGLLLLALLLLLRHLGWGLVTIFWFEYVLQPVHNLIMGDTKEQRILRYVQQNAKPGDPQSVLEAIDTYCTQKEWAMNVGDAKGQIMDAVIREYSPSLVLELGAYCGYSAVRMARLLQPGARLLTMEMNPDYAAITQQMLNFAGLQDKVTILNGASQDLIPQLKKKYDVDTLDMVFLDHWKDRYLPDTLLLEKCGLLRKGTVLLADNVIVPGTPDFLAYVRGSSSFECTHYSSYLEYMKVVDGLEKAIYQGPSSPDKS
UniProt P29476, whole entry, looked up: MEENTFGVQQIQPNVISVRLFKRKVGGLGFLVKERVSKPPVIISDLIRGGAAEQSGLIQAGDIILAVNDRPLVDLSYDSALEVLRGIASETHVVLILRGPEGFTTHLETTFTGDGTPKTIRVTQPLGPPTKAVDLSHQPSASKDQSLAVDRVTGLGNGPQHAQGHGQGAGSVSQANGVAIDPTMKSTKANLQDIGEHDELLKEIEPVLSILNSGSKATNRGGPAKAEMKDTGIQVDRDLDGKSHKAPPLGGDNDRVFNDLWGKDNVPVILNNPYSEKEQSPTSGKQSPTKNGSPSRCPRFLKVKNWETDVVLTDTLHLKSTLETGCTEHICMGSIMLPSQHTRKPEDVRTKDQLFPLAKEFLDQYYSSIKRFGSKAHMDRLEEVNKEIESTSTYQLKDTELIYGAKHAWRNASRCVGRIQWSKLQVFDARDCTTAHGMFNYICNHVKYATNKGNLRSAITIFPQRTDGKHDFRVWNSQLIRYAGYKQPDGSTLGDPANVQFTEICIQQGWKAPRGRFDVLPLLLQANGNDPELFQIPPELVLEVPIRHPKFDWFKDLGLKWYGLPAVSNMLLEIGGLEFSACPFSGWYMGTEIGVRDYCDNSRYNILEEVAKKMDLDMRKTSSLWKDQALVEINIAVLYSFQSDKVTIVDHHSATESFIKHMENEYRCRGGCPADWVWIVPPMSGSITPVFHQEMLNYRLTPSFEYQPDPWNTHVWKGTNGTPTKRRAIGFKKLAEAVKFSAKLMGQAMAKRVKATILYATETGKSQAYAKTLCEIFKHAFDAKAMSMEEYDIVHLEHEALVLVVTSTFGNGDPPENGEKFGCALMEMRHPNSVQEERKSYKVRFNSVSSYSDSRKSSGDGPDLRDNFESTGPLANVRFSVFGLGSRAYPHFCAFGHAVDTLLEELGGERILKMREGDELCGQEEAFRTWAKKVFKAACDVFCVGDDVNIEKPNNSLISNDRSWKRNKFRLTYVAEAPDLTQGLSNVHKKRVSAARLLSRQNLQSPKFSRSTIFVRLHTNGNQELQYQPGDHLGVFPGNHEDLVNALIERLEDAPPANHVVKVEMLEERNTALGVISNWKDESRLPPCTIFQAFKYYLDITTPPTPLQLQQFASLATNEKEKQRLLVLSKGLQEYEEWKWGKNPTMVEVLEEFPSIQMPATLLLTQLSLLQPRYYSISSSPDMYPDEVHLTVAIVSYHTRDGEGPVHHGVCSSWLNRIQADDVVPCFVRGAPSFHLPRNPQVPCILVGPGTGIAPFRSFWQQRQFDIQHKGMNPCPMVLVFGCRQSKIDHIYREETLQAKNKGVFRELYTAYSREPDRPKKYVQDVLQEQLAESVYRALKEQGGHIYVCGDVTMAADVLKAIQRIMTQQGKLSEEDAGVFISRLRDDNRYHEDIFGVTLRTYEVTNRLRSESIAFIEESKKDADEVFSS
UniProt P47898, whole entry, looked up: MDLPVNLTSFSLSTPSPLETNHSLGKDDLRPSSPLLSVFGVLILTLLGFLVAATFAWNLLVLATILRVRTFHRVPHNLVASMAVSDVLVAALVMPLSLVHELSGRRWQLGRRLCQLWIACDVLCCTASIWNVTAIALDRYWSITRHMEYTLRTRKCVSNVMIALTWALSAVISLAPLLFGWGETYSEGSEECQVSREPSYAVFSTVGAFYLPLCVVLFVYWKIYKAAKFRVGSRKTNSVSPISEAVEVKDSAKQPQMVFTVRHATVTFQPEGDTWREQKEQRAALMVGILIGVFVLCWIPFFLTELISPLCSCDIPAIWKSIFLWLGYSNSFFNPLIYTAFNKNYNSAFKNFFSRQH
UniProt P25101, whole entry, looked up: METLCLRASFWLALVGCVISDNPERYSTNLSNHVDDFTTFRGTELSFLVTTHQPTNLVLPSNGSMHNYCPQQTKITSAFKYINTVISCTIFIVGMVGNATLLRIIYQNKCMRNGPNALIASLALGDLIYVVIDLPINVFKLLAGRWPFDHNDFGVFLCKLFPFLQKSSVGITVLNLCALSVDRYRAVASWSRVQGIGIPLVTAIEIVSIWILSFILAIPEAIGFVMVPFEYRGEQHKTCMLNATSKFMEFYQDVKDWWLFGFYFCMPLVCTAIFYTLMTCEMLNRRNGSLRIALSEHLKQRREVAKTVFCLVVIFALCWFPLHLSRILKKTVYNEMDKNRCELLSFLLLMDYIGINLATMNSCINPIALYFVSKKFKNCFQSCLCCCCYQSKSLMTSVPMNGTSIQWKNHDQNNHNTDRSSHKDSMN
UniProt P30989, whole entry, looked up: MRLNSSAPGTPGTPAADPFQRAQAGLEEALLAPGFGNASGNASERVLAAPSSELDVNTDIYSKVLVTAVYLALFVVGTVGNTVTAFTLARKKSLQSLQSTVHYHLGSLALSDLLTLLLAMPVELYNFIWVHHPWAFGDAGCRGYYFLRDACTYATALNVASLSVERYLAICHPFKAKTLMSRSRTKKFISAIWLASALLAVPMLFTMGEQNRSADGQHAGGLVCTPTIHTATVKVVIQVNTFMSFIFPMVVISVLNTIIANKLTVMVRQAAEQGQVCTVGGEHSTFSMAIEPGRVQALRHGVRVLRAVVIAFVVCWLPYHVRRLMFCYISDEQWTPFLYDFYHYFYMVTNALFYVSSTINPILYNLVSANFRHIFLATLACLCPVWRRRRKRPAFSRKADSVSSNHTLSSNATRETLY
UniProt P30536, whole entry, looked up: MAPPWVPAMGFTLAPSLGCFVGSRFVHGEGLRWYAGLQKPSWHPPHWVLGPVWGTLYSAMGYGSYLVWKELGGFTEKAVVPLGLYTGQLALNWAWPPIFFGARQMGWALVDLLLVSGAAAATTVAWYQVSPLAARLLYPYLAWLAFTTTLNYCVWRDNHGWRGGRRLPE
UniProt P22199: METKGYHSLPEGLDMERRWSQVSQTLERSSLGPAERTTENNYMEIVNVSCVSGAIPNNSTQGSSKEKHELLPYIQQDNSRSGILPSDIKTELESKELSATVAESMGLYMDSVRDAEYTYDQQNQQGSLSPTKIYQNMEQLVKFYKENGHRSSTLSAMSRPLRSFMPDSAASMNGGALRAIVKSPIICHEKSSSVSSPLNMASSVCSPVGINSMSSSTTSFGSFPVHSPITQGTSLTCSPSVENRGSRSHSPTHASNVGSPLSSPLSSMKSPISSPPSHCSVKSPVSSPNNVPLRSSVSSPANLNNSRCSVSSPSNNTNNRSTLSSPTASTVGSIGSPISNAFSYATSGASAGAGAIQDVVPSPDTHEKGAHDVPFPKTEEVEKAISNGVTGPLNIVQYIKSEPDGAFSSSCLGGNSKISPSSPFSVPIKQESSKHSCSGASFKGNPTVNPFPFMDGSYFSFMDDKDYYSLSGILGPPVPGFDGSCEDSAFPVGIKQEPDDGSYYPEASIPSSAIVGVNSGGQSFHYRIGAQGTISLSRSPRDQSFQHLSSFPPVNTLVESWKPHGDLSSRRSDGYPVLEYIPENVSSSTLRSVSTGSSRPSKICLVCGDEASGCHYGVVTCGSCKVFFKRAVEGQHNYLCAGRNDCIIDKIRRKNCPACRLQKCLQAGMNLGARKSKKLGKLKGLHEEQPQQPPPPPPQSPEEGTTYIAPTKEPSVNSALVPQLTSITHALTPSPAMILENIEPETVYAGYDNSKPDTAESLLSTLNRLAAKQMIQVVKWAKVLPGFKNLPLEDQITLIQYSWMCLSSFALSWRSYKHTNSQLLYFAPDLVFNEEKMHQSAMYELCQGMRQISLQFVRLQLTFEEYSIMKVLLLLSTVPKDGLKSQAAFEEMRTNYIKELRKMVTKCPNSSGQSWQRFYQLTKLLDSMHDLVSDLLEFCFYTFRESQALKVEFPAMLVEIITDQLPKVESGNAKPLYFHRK
UniProt P04406: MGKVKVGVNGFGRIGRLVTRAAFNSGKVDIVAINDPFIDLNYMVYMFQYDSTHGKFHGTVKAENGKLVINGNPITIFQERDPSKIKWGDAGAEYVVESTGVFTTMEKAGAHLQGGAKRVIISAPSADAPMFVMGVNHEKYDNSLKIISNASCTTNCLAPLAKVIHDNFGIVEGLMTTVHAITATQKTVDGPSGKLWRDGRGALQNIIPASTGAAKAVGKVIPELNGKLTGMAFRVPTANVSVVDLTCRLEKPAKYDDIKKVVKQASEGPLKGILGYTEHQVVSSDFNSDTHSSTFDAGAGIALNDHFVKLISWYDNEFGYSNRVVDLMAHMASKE

[2] = molecular target: human Caspase 8 (CASP8), CASP8 (gene 841) (UniProt Q14790); test: NVS_ENZ_hCASP8: NovaScreen (NVS) Enzymatic Assay for human Caspase 8 (CASP8) (AID 2283146)
In short: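 E. coli-expressed enzyme was used in a cell-free fluorogenic substrate assay read 1 h after dosing. Loss of signal was scored relative to DMSO, and the primary screen was run in duplicate at 25 uM.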

[3] = molecular target: Collagenase 3 (Homo sapiens) (UniProt P45452); test: NVS_ENZ_hMMP13: NovaScreen (NVS) Enzymatic Assay for human Matrix Metalloproteinase-13 (MMP13) (AID 2283182)
In short: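 Recombinant MMP13 cleaving fluorescent substrate, cell-free, measured 1 h after dosing. Primary duplicate screen at 25 uM; actives tested in concentration-response up to 50 uM; loss of signal relative to DMSO.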

[4] = molecular target: human Matrix Metalloproteinase-7 (MMP7), MMP7 (gene 4316) (UniProt P09237); test: NVS_ENZ_hMMP7: NovaScreen (NVS) Enzymatic Assay for human Matrix Metalloproteinase-7 (MMP7) (AID 2283183)
In short: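 Cell-free fluorescence enzymatic assay read 1 h after compound addition, activity loss analyzed against DMSO. Primary duplicate testing at 25 uM; compounds meeting threshold rerun in singleton concentration-response up to 50 uM.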

[5] = molecular target: human Phosphodiesterase 4A1 (PDE4A1), PDE4A (gene 5141) (UniProt P27815); test: NVS_ENZ_hPDE4A1: NovaScreen (NVS) Enzymatic Assay for human Phosphodiesterase 4A1 (PDE4A1) (AID 2283191)
In short: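 Cell-free recombinant human PDE4A1 with fluorescent substrate; product separated by electrophoretic mobility shift, 1 h. Screened at 25 uM, then up to 50 uM in concentration-response; loss of signal fitted against DMSO.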

[6] = molecular target: cAMP-dependent protein kinase catalytic subunit alpha (Homo sapiens) (UniProt P17612); test: NVS_ENZ_hPKA: NovaScreen (NVS) Enzymatic Assay for human Protein Kinase A (PKA) (AID 2283192)
In short: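 Recombinant human PKA with specific fluorescent substrate, product separated by electrophoretic mobility shift, read 1 h after dosing. Primary screen at 25 uM in duplicate; actives then run in concentration-response up to 50 uM, activity relative to DMSO.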

[7] = molecular target: rabbit Imidazoline 2 Central (I2C), CKB (gene 100009085) (UniProt P00567); test: NVS_ENZ_rabI2C: NovaScreen (NVS) Enzymatic Assay for rabbit Imidazoline 2 Central (I2C) (AID 2283228)
In short: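 Rabbit brain membranes, cell-free; readout by filter-based scintillation counting 1.5 hours after dosing, loss of signal vs DMSO. Initial duplicate test at 25 uM, then concentration-response with 50 uM top concentration.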

[8] = molecular target: rat Catechol-O-Methyl Transferase (COMT), Comt (gene 24267) (UniProt P22734); test: NVS_ENZ_rCOMT: NovaScreen (NVS) Enzymatic Assay for rat Catechol-O-Methyl Transferase (COMT) (AID 2283235)
In short: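 Cell-free enzyme activity with protein extracted from rat dorsal striatum, measured by HPLC with absorbance detection. Compounds screened at 25 uM in duplicate; actives then run in concentration-response up to 50 uM, loss of signal versus DMSO.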

[9] = molecular target: rat Constitutive Nitric Oxide Synthase (CNOS), Nos1 (gene 24598) (UniProt P29476); test: NVS_ENZ_rCNOS: NovaScreen (NVS) Enzymatic Assay for rat Constitutive Nitric Oxide Synthase (CNOS) (AID 2283236)
In short: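 Enzyme activity in rat brain membrane preparation, read 1 h after dosing by filter-based radiometric scintillation counting. Primary screen in duplicate at 25 uM; actives (e.g., ≥30% inhibition) then run in concentration-response up to 50 uM.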

[10] = molecular target: human Serotonin, 5-Hydroxytryptamine Receptor 5A (5HT5A), HTR5A (gene 3361) (UniProt P47898); test: NVS_GPCR_h5HT5A: NovaScreen (NVS) G Protein-Coupled Receptor Assay for human Serotonin, 5-Hydroxytryptamine Receptor 5A (5HT5A) (AID 2283251)
In short: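 Cell-free radioligand displacement binding on HEK293-derived membrane protein, 1 h incubation, filter-based scintillation counting. Primary screen in duplicate at 25 uM, actives followed in concentration series; loss of signal fitted versus DMSO.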

[11] = molecular target: human Endothelin Receptor Type A (ETA), EDNRA (gene 1909) (UniProt P25101); test: NVS_GPCR_hETA: NovaScreen (NVS) G Protein-Coupled Receptor Assay for human Endothelin Receptor Type A (ETA) (AID 2283265)
In short: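 Cell-free radioligand displacement using SH-SY5Y-derived protein, 3 h incubation, filter-based scintillation counting. Primary screen in duplicate at 25 uM; actives then run in concentration-response up to 50 uM; loss of binding fitted versus DMSO.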

[12] = molecular target: human Neurotensin Receptor (NTS), NTSR1 (gene 4923) (UniProt P30989); test: NVS_GPCR_hNTS: NovaScreen (NVS) G Protein-Coupled Receptor Assay for human Neurotensin Receptor (NTS) (AID 2283279)
In short: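 Radioligand displacement on human NTSR1 protein from CHO cells, cell-free, 1 h, filter-based scintillation counting. Primary screen at 25 uM in duplicate; hits rerun in concentration-response up to 50 uM.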

[13] = molecular target: human Vasopressin 1A Receptor (V1A), AVPR1A (gene 552) (UniProt P37288); test: NVS_GPCR_hV1A: NovaScreen (NVS) G Protein-Coupled Receptor Assay for human Vasopressin 1A Receptor (V1A) (AID 2283284)
In short: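 Cell-free radioligand displacement on human platelet preparations, 1.5 h incubation, filter-based scintillation counting. Chemicals first tested in duplicate at 25 uM; actives then run in concentration-response up to 50 uM, loss of signal fitted against DMSO.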

[14] = molecular target: rat Glutamate, NMDA Agonist Site (GluNMDA), Grin1 (gene 24408) (UniProt P35439); test: NVS_LGIC_rGluNMDA_Agonist: NovaScreen (NVS) Ligand-Gated Ion Channel Assay for rat Glutamate, NMDA Agonist Site (GluNMDA) (AID 2283327)
In short: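 Rat forebrain membranes, radioligand binding in the agonist-site protocol; 1 h after dosing; filter-based scintillation counting. Single-concentration duplicate screen at 25 uM, then concentration-response up to 50 uM for actives; gain-of-signal vs DMSO.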

[15] = molecular target: human Peripheral-type Benzodiazepine Receptor (PBR), TSPO (gene 706) (UniProt P30536); test: NVS_MP_hPBR: NovaScreen (NVS) Membrane Protein Assay for human Peripheral-type Benzodiazepine Receptor (PBR) (AID 2283331);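 also: hits reduce radioligand binding relative to DMSO baseline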
In short: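 Scintillation counts of filter-bound radioligand served as read-out after 1 h chemical dosing of human colonic membrane preparations. Activity was scored as signal loss against DMSO; initial duplicates at 25 uM, confirmatory concentration series afterward.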

[16] = molecular target: rat Mineralocorticoid Receptor (MR), Nr3c2 (gene 25672) (UniProt P22199); test: NVS_NR_rMR: NovaScreen (NVS) Nuclear Receptor Binding Assay for rat Mineralocorticoid Receptor (MR) (AID 2283355)
In short: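 Adrenalectomized rat brain supernatant was dosed with test chemical, then radioligand binding was measured by scintillation counting at 24 h. Initial testing ran in duplicate at 25 uM, followed by concentration series for actives.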

[17] = read-out: alkyl and aryl transferase (GSTA2), GSTA2 (gene 2939); test: CLD_GSTA2_6hr: CellzDirect (CLD) Gene Expression Assay for alkyl and aryl transferase (GSTA2) at 6 hours (AID 2283666)
In short: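 Primary human hepatocytes from two donor preparations were dosed daily with fresh compound at multiple concentrations, 0.2% DMSO vehicle. GSTA2 mRNA was measured at 6 hours by qNPA chemiluminescence; induction fitted relative to DMSO, with cytotoxicity flagged morphologically.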

[18] = CLD_ACTIN_6hr: CellzDirect (CLD) Gene Expression Assay for Baseline Control (Actin) at 6 hours (AID 2283676)
In short: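 Primary human hepatocytes dosed with fresh chemical solutions (vehicle 0.2% DMSO), harvested at 6 h. Actin mRNA quantified by quantitative nuclease protection assay with chemiluminescent read-out, as background control relative to DMSO.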

[19] = read-out: Glyceraldehyde-3-phosphate dehydrogenase (Homo sapiens) (UniProt P04406); test: CLD_GAPDH_6hr: CellzDirect (CLD) Gene Expression Assay for Baseline Control (Glyceraldehyde 3-phosphate dehydrogenase) at 6 hours (AID 2283681)
In short: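 Primary human hepatocytes from two donor preparations, dosed at multiple concentrations with 0.2% DMSO vehicle; GAPDH mRNA measured 6 h after dosing by chemiluminescent quantitative nuclease protection assay (qNPA) on denatured lysates. Serves as background control; cytotoxicity annotated by morphology.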

[20] = read-out: ABC Transporter (ABCB1), ABCB1 (gene 5243); test: CLD_ABCB1_24hr: CellzDirect (CLD) Gene Expression Assay for ABC Transporter (ABCB1) at 24 hours (AID 2283684);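 also: potency for increase in ABCB1 mRNA relative to DMSO vehicle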
In short: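 Primary human hepatocytes, two donor preparations, dosed daily with fresh solutions; vehicle 0.2% DMSO; harvested at 24 h. ABCB1 mRNA measured by quantitative nuclease protection assay (chemiluminescence); morphology-based cytotoxicity annotated.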

Measured: AC50

S=C(S)NCCNC(=S)S.[Mn+2].[S-]C([S-])=NCCN=C([S-])[S-].[Zn+2]
inactive: [2] | [3] | [11] | [13] | [14] | [16]
inconclusive: [4] 12.5 µM | [7] 0.367 µM | [9] 12.5 µM | [10] 12.5 µM | [12] 25 µM | [15] 4.96 µM | [17] 20 µM | [18] 20 µM | [19] 3.97 µM
active: [1] 4.22 µM and 4.27 µM | [5] 3.82 µM and 3.7 µM and 10.6 µM | [6] 20.5 µM | [8] 21.1 µM | [20] 1.5 µM

Source: PubChem BioAssay (EPA / NIEHS)
